{
  "source": "PubChem BioAssay AID248",
  "about": "(DTP/NCI, 2004)",
  "system": "L1210 leukemia ip in BDF1 mice, survival T/C",
  "assay": "NCI In Vivo Anticancer Drug Screen. Data for tumor model L1210 Leukemia (intraperitoneal) in B6D2F1 (BDF1) mice",
  "settings": "T/C endpoint: mean survival time, higher T/C = longer survival",
  "key": {"[1]": {"settings": "dose: 200.0 mg/kg/injection, schedule: Q01DX009 (ip), vehicle: saline with Tween-80"}, "[2]": {"settings": "dose: 100.0 mg/kg/injection, schedule: Q01DX009 (ip), vehicle: saline with Tween-80"}, "[3]": {"settings": "dose: 400.0 mg/kg/injection, schedule: Q01DX009 (ip), vehicle: saline with Tween-80"}, "[4]": {"settings": "dose: 400.0 mg/kg/injection, schedule: Q04DX003 (ip), vehicle: saline with Tween-80"}, "[5]": {"settings": "dose: 400.0 mg/kg/injection, schedule: Q01DX009 (ip), vehicle: saline"}, "[6]": {"settings": "dose: 300.0 mg/kg/injection, schedule: Q01DX001 (ip), vehicle: saline"}},
  "note": "The list does not hold the whole screen: it is rich in T/C values a quarter to a half above the control, in often repeated tests (any T/C) and in doses without a T/C. Other doses and runs of a compound stand elsewhere. T/C gives the treated animals as a percentage of the vehicle group. Some entries give survivors of the animals treated and no T/C: the source holds a T/C of zero for them, seemingly a mark for toxic or unscored doses. Some survivor counts are full or nearly so, which does not show that the dose was tolerated: the source hardly ever lists a survival T/C far under the control, and the zero likely stands for such cases as well. Survivors were counted at the toxicity check, usually on the fifth day, unless a day is given; later deaths do not show. Schedules are NCI's codes, read here as Q, the interval in days (D) or hours (H), X, the number of doses. Some entries were tested several times; their values stand side by side, smallest first. Some schedules carry Z or #; the key to these is not given. For survival time, this PubChem deposit counts one and a half times the control or more as active, and values a quarter to a half above the control carry no call in these data; other NCI protocols may use other cut-offs.",
  "data": [
    {"smiles": "COc1cc(/C=C(/C#N)[N+](=O)[O-])ccc1O", "values": [
      {"measurement": "survivor count", "setting": "dose: 12.5 mg/kg/injection, schedule: Q01DX009 (ip), vehicle: DMSO", "value": "6 of 6"},
      {"measurement": "survivor count", "setting": "dose: 100.0 mg/kg/injection, schedule: Q04DX003 (ip), vehicle: DMSO", "value": "3 of 6"},
      {"measurement": "survivor count", "setting": "dose: 200.0 mg/kg/injection, schedule: Q04DX003 (ip), vehicle: DMSO", "value": "0 of 6"},
      {"measurement": "survivor count", "setting": "dose: 400.0 mg/kg/injection, schedule: Q04DX003 (ip), vehicle: DMSO", "value": "0 of 6"}
    ]},
    {"smiles": "O=C(Nc1ccc(OP(=O)(O)O)cc1)c1ccc(C(=O)Nc2ccc(OP(=O)(O)O)cc2)cc1", "values": [
      {"measurement": "survivor count", "setting": "dose: 37.5 mg/kg/injection, schedule: Q01DX Z (ip), vehicle: water", "value": "1 of 6"},
      {"measurement": "survivor count", "setting": "dose: 75.0 mg/kg/injection, schedule: Q01DX Z (ip), vehicle: water", "value": "0 of 6"},
      {"measurement": "survivor count", "setting": "dose: 150.0 mg/kg/injection, schedule: Q01DX Z (ip), vehicle: water", "value": "0 of 6"}
    ]},
    {"smiles": "CN1C(c2ccc(Cl)cc2)OCC1(C)C", "note": "(centres undefined)", "values": [
      {"measurement": "survivor count", "setting": "dose: 400.0 mg/kg/injection, schedule: Q04DX003 (ip), vehicle: saline sonified", "value": "6 of 6"}
    ]},
    {"smiles": "O=c1ccc2c(c1)oc1cccc3c(=O)c4ccccc4c2c13", "values": [
      {"measurement": "survivor count", "setting": "[1]", "value": "1 of 3"}
    ]},
    {"smiles": "O=C(Nc1ccc([N+](=O)[O-])cc1Cl)OCCCl", "values": [
      {"measurement": "survivor count", "setting": "[2]", "value": "3 of 3"},
      {"measurement": "survivor count", "setting": "[3]", "value": "6 of 6"},
      {"measurement": "survivor count", "setting": "[4]", "value": "6 of 6"}
    ]},
    {"smiles": "Cc1ccc(C(=O)C2CC2)cc1C", "values": [
      {"measurement": "survivor count", "setting": "[4]", "value": "2 of 6"}
    ]},
    {"smiles": "Cc1nn(-c2ccccc2)c(N)c1C#N", "values": [
      {"measurement": "survivor count", "setting": "[5]", "value": "3 of 6"}
    ]},
    {"smiles": "CCCC[P+](CCCC)(CCCC)Cc1ccc(C(=O)Oc2ccc([N+](=O)[O-])cc2)cc1", "values": [
      {"measurement": "survivor count", "setting": "dose: 200.0 mg/kg/injection, schedule: Q04DX003 (ip), vehicle: Klucel (hydroxypropylcellulose) (HPC)", "value": "3 of 6"},
      {"measurement": "survivor count", "setting": "dose: 400.0 mg/kg/injection, schedule: Q04DX003 (ip), vehicle: Klucel (hydroxypropylcellulose) (HPC)", "value": "2 of 6"}
    ]},
    {"smiles": "S=c1[nH][nH]c(=S)s1", "values": [
      {"measurement": "survivor count", "setting": "dose: 200.0 mg/kg/injection, schedule: Q01DX009 (ip), vehicle: Klucel (hydroxypropylcellulose) (HPC)", "value": "0 of 6"},
      {"measurement": "survivor count", "setting": "dose: 200.0 mg/kg/injection, schedule: Q01DX009 (ip), vehicle: saline", "value": "1 of 3"},
      {"measurement": "survivor count", "setting": "dose: 400.0 mg/kg/injection, schedule: Q01DX009 (ip), vehicle: Klucel (hydroxypropylcellulose) (HPC)", "value": "0 of 6"}
    ]},
    {"smiles": "CCC(C)(C)C(=O)Nc1cccc(OC(=O)NC)c1", "values": [
      {"measurement": "survivor count", "setting": "[2]", "value": "6 of 6"},
      {"measurement": "survivor count", "setting": "[1]", "value": "6 of 6"}
    ]},
    {"smiles": "Cc1cc(Br)c(N(C=O)N=O)c(Br)c1", "values": [
      {"measurement": "survivor count", "setting": "[6]", "value": "1 of 6"}
    ]},
    {"smiles": "O=C1OC(=O)C2C3C=CC(C4C=CC43)C12", "note": "(centres undefined)", "values": [
      {"measurement": "survivor count", "setting": "[5]", "value": "2 of 6"},
      {"measurement": "survivor count", "setting": "dose: 400.0 mg/kg/injection, schedule: Q04DX002 (ip), vehicle: saline with Tween-80", "value": "1 of 3"}
    ]},
    {"smiles": "CCN1CC(C)(C)N(C(=O)c2ccccc2)CC1(C)C", "values": [
      {"measurement": "survivor count", "setting": "dose: 100.0 mg/kg/injection, schedule: Q01DX001 (ip), vehicle: carboxymethylcellulose (CMC)", "value": "2 of 4"},
      {"measurement": "survivor count", "setting": "dose: 200.0 mg/kg/injection, schedule: Q01DX001 (ip), vehicle: carboxymethylcellulose (CMC)", "value": "1 of 4"},
      {"measurement": "survivor count", "setting": "dose: 400.0 mg/kg/injection, schedule: Q01DX001 (ip), vehicle: carboxymethylcellulose (CMC)", "value": "1 of 4"}
    ]},
    {"smiles": "CC1CC/C(=C\\c2ccccc2)C(=O)/C1=C/c1ccccc1", "note": "(centres undefined)", "values": [
      {"measurement": "survivor count", "setting": "dose: 400.0 mg/kg/injection, schedule: Q01DX009 (ip), vehicle: DMSO", "value": "6 of 6"}
    ]},
    {"smiles": "CCNCCCNc1ccnc2cc(Cl)ccc12", "values": [
      {"measurement": "survivor count", "setting": "dose: 75.0 mg/kg/injection, schedule: Q01DX001 (ip), vehicle: saline", "value": "2 of 6"},
      {"measurement": "survivor count", "setting": "dose: 150.0 mg/kg/injection, schedule: Q01DX001 (ip), vehicle: saline", "value": "0 of 6"},
      {"measurement": "survivor count", "setting": "[6]", "value": "0 of 6"}
    ]},
    {"smiles": "Cc1ccc(S(=O)(=O)NC(=O)Nc2cc(Cl)c(Cl)cc2C)cc1", "values": [
      {"measurement": "T/C", "setting": "[1]", "value": "126 % of control"},
      {"measurement": "survivor count", "setting": "[3]", "value": "0 of 3 and 2 of 6"},
      {"measurement": "survivor count", "setting": "[5]", "value": "0 of 3"}
    ]},
    {"smiles": "CCS[S+](CC)CC", "values": [
      {"measurement": "survivor count", "setting": "dose: 25.0 mg/kg/injection, schedule: Q01DX009 (ip), vehicle: saline with Tween-80", "value": "1 of 3"},
      {"measurement": "survivor count", "setting": "dose: 50.0 mg/kg/injection, schedule: Q01DX009 (ip), vehicle: other", "value": "0 of 3"},
      {"measurement": "survivor count", "setting": "dose: 100.0 mg/kg/injection, schedule: Q01DX009 (ip), vehicle: other", "value": "0 of 3"},
      {"measurement": "survivor count", "setting": "dose: 200.0 mg/kg/injection, schedule: Q01DX009 (ip), vehicle: other", "value": "0 of 3"}
    ]},
    {"smiles": "O=C1CCC2C3CCC(=O)C3C12", "note": "(centres undefined)", "values": [
      {"measurement": "survivor count", "setting": "[6]", "value": "0 of 6"}
    ]}
  ]
}
